Reference: patent publication US20190184069A1, “ANTIMICROBIAL COMPOSITIONS COMPRISING MINOCYCLINE AND DEGRADATION PRODUCTS OF OXIDIZED CELLULOSE” (Omrix Biopharmaceuticals Ltd., priority 2017, published 2019)
Entries after “also recorded” stand apart in the source; their conditions may differ. At least one compound was matched to its structure with a doubt left.

Key:
[1] = test system: S. aureus; settings: cited from earlier work
[2] = test system: S. aureus; experiment: Secondary stage: bacterial growth (ET50/MIC) of antibiotics with or without extract of degradation products of ORC; assay type: cell-based, Staphylococcus aureus; settings: antibiotic with versus without ORC degradation products
Text: ORC pads which had not been impregnated with antibiotic (referred to herein as “blank ORC pads”), were subjected to extraction and degradation in PBS for three hours at ambient temperature. Extract obtained from these blank ORC pads is referred to herein as “blank extract of degradation products of ORC”.
Blank ORC pads were subjected to extraction and degradation in a solution of antibiotic in PBS. Extracts of degradation products obtained from blank ORC pads in a solution of antibiotic in PBS is referred to herein as “extracts of degradation products of blank ORC in antibiotic”. […]
The plate was incubated at 37° C. with shaking in the ELISA reader and the optical density at 600 nm was read every 20 minutes for a total of 18 hours.
The average and standard deviation for OD readings was calculated for each time point of the wells using Excel. […]
The average values were also entered into the GraphPad Prism program (GraphPad Software Inc., CA, USA) in order to calculate the Effective Time 50 (ET50) i.e. the time, in minutes, required for the antibiotic to induce a response halfway between the baseline and maximum, where the maximum is the bacterial growth in MHBII with PBS. This provides a quantifiable measure of the efficacy of the antibiotics tested and enables comparison of the various samples tested.

Structure (SMILES) | MIC values for S. aureus according to the literature [1] [µg/mL] | Effect of addition of degradation products of ORC on the antibiotic activity [2]
CCC[C@@H]1C[C@@H](C(=O)N[C@@H]([C@H]2O[C@H](SC)[C@H](O)[C@@H](O)[C@H]2O)[C@H](C)Cl)N(C)C1 [Clindamycin, clindamycin] | 0.06 to 0.25 | 
CN(C)[C@@H]1C(O)=C(C(N)=O)C(=O)[C@@]2(O)C(O)=C3C(=O)c4c(O)cccc4[C@@](C)(O)[C@H]3C[C@@H]12 [Tetracycline] |  | no interference occurred; also recorded: no change
CN(C)c1ccc(O)c2c1C[C@H]1C[C@H]3[C@H](N(C)C)C(O)=C(C(N)=O)C(=O)[C@@]3(O)C(O)=C1C2=O [Minocycline, minocycline] | 0.06 to 0.5 | strong synergistic effect; also recorded: MIC was reduced
